Test results: patent US20150376619, “APTAMERS THAT BIND CD271” (VIVONICS, INC., published 2015)
Construct, isoform or probe ends are uncertain for at least one entry. Where a protein sequence is shown, tags need not be part of it.

Target: T1, CD271 (NGFR, p75NTR)/Fc chimera (Homo sapiens) (UniProt P08138)
T1 sequence (looked up, limits assumed): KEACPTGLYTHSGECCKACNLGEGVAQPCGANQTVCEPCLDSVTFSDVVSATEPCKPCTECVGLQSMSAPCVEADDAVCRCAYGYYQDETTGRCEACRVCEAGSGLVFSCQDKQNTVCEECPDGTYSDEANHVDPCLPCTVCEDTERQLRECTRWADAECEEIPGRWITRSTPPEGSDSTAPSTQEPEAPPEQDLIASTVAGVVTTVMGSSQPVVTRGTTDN
Experiment: SPR
Details: biotinylated for SPR; PBS pH 7.4; aptamer immobilized; p113 text gives the two Kd values in the opposite order (1.1 nM for 1391-Motif); purified recombinant protein; label: biotin; single-stranded DNA

Sequence: TACGACTCACTATAGGGATCCAAGAAAGAAAAAGGAGAAAGGGGGGGGGGAATTCCCTTTAGTGAGGGTT [1391-Motif]
- Kd: 19.5 nM
